US3966744A, “Spin labeled compounds” (priority 1974, dated 1976)

Test system: antibody (methadone assay)
Type: binding, rabbit
Settings: 3.1 μg/ml

## CCC(=O)C(CC(C)N(C)C)(c1ccccc1)c1ccccc1 (stereo not shown) [methadone]
  % Mobilization: 44%
